Laboratory results: the supplement of paper PMC3334620
In all, about 33,000 sequences were measured (“E-score (-0.5 to 0.5)”: median about -8e-05, highest 2% from about 0.23 on). The list shows a part of the results.

Biological target: T1, Nrg2 (UniProt P38082)
T1 sequence: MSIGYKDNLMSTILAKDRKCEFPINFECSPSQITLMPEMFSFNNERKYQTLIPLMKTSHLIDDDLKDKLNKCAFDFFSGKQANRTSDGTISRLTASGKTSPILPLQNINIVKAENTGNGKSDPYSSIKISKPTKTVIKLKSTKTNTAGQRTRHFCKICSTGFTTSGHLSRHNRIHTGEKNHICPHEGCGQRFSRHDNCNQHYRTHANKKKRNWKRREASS
Assay: PBM E-score (8-mer binding enrichment) (E-score (-0.5 to 0.5)); higher = stronger / more preferred TF binding
Settings: protein concentration: 100 nM; construct: GST-full length
Outline: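 Each ungapped eight-base word and its reverse complement, pooled, received an E-score from the Universal PBM Analysis Suite. Underlying scans, normalised with masliner, recorded fluorescent anti-GST bound to GST-tagged yeast transcription factors. These were applied at about 100-200 nM to universal all-10-mer Agilent arrays double-stranded by primer extension.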

Row | Sequence | PBM E-score
1 | ACGGTATC | 0.123
2 | ATCGTGAA | -0.0316
3 | CCGTGGTA | -0.245
4 | CCAGAAAA | 0.0813
5 | CTAATGAC | -0.125
6 | AACGGCCC | -0.077
7 | CATCATAA | 0.0511
8 | GCAATAGC | 0.133
9 | CTTCTTCA | -0.205
10 | GGTCGACC | 0.221
11 | ATCAGTAA | 0.0691
12 | CGCAATGA | 0.0431
13 | CATGCCCG | -0.0456
14 | GCAAAATA | 0.0973
15 | TAAGAATA | -0.0925
16 | ATGCGTCG | -0.0307
17 | ACAGAGTG | 0.00388
18 | AGAATAAA | 0.112
19 | AGGGACAT | 0.301
20 | GACGGCTA | -0.105
21 | GTGCCTAA | -0.17
22 | AATGATAT | 0.187

Row | Sequence | PBM E-score
23 | AGTCCTGC | -0.194
24 | CTGAGCAC | -0.0285
25 | CCCCCTGC | -0.303
26 | AACTATCT | 0.122
27 | AACTGAAT | -0.0545
28 | CTCGTCGA | 0.121
29 | GCCTCCCC | -0.12
30 | AAGGGGTC | 0.239
31 | GCAGACGC | 0.0055
32 | GAGGTACA | -0.0653
33 | CTATTCGC | 0.0444
34 | GTAATCAA | 0.181
35 | CAACTTGG | 0.116
36 | AGGGTGAG | -0.137
37 | AGAGTACT | 0.00951
38 | CGACATTC | 0.0567
39 | ATATCCTC | 0.155
40 | CTATATCC | -0.025
41 | GACCTTAA | -0.11
42 | AGGGTGAC | -0.0626
43 | CGGCAAGC | -0.0117
44 | CCGCACAG | 0.0155

Row | Sequence | PBM E-score
45 | ATTCATAA | 0.075
46 | AGGCAATG | 0.0339
47 | CTCGTGCC | -0.00919
48 | CCCTGGCG | 0.19
49 | CTGCTGGA | 0.0147
50 | CCATGACA | 0.0793
51 | ACAAGCCA | 0.00278
52 | CAGTATCG | -0.00531
53 | ATAAACTC | 0.11
54 | ACCTATTA | 0.0948
55 | GAAGTCCC | -0.0916
56 | GACGGGAA | 0.00844
57 | AGATTTCG | 0.0985
58 | AGAGTTGA | -0.073
59 | CATTTCTA | -0.00265
60 | GAACCCAC | 0.109
61 | ACCGGCCG | 0.0168
62 | TGTACCAA | -0.0629
63 | GTGACCAA | 0.118
64 | CTCTGGCC | -0.0755
65 | ATGATACG | 0.0763
66 | ATTGGCTA | 0.0695

Row | Sequence | PBM E-score
67 | GTAACGTA | -0.0805
68 | CTTTATCC | -0.0523
69 | CTCGGCAA | -0.017
70 | ACCGAAGA | 0.0165
71 | CAAGCAAC | 0.0328
72 | AATTCTAG | -0.027
73 | AATCAATT | 0.213
74 | AGCTAGCG | 0.00875
75 | ATACGTCC | -0.148
76 | AGGCACTA | -0.015
77 | AGGATACC | -0.00401
78 | AGTTTAGA | 0.0577
79 | ACAGATCC | 0.033
80 | ACAAGTCG | -0.201
81 | AGGTGGAA | -0.0778
82 | CCTATAAG | -0.0605
83 | AAACACGT | -0.155
84 | ACACCTTG | -0.0415
85 | AACTCCCA | 0.0924
86 | AGGCCTAA | 0.137

Shown with tabs: entries from further up.
Row	Sequence	PBM E-score
48	CCCTGGCG	0.19
49	CTGCTGGA	0.0147
50	CCATGACA	0.0793
